Experimental data reported in patent publication US11642320B2, “Nanoparticulate prodrugs” (priority 2016, dated 2023).

System: RAW 264.7 cell line
Assay: In vitro cell viability (MTT)
Format: cell-based
Experimental: During inflammatory diseases development, immune cells such as macrophages play a critical role within inflammatory pathways, cytokines production and diapedesis. The influence of the nanoparticles in the cell viability was studied in the RAW 264.7 cell line using a colorimetric method. Cells were seeded in 96-well plates at a density of 8×10^3 cells/well in 100 μL of culture medium, and they were left overnight in the incubator. Afterwards, the nanoparticles at different concentrations were added to some wells, and milli-Q water diluted in medium to the control cells. Beside, nanoparticles alone in culture medium were also tested to check their interference with the absorbance. The plates were incubated for 24 hours and the yellow tetrazolium MTT (3-(4, 5-dimethylthiazolyl-2)-2,5-diphenyltetrazolium bromide) was added at a final concentration of 500 μg/mL and incubated for another hour. The MTT is reduced by metabolically active cells to form the purple formazan crystals. After the formation of the crystals, the medium was replaced by 1004 of DMSO to dissolve them and the absorbance was measured at 570 nm. The formula used to calculate the cell viability was the following: […]

C[C@@H]1C[C@H]2[C@@H]3CCC4=CC(=O)C=C[C@]4(C)[C@@]3(F)[C@@H](O)C[C@]2(C)[C@@]1(O)C(=O)COP(=O)(O)O [DSP, dexamethasone sodium phosphate]
concentration up to which no toxicity on macrophages: up to 1000 μg/ml
